These are yes or no findings as the source states them, for the method shown. In cells and extracts the contact can be indirect. Some entries that bind do so weakly or less than the wild type. Values belong to the molecule of their own block, whether it stands above or below them.
Key:
[1] = molecular target: T1, Mre11 (human (endogenous in HCT116)) (UniProt P49959); assay: co-IP; Pierce Crosslink IP Kit; antibody against ATR or Mre11 (5 ug) crosslinked to Protein A/G Plus Agarose; 1 mg total lysate of sg-ctrl and scaRNA2 knockdown HCT116 cells, 8 h after 8 Gy irradiation; overnight at 4 °C; western blot
T1 sequence: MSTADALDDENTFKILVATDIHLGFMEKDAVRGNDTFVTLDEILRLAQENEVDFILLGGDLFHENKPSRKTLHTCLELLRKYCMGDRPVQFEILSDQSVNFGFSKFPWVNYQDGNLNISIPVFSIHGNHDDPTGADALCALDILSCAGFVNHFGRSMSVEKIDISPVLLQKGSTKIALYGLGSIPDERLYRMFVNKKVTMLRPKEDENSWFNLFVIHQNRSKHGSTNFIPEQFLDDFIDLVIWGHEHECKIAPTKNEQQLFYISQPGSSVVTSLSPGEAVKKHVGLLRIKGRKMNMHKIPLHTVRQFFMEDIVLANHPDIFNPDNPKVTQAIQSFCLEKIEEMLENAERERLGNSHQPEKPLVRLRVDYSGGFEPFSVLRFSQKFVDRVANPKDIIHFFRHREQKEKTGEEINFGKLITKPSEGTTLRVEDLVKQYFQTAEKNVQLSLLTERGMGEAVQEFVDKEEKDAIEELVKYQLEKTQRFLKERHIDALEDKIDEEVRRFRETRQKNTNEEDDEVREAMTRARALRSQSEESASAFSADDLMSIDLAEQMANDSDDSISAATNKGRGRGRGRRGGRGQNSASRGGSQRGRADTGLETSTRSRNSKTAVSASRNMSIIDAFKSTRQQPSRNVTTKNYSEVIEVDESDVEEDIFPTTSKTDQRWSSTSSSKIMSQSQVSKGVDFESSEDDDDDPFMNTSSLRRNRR

Amino acid sequences for entries named in this document (tags omitted). A change or cut given only in a name is not applied to a line headed by its entry.
UniProt Q13535: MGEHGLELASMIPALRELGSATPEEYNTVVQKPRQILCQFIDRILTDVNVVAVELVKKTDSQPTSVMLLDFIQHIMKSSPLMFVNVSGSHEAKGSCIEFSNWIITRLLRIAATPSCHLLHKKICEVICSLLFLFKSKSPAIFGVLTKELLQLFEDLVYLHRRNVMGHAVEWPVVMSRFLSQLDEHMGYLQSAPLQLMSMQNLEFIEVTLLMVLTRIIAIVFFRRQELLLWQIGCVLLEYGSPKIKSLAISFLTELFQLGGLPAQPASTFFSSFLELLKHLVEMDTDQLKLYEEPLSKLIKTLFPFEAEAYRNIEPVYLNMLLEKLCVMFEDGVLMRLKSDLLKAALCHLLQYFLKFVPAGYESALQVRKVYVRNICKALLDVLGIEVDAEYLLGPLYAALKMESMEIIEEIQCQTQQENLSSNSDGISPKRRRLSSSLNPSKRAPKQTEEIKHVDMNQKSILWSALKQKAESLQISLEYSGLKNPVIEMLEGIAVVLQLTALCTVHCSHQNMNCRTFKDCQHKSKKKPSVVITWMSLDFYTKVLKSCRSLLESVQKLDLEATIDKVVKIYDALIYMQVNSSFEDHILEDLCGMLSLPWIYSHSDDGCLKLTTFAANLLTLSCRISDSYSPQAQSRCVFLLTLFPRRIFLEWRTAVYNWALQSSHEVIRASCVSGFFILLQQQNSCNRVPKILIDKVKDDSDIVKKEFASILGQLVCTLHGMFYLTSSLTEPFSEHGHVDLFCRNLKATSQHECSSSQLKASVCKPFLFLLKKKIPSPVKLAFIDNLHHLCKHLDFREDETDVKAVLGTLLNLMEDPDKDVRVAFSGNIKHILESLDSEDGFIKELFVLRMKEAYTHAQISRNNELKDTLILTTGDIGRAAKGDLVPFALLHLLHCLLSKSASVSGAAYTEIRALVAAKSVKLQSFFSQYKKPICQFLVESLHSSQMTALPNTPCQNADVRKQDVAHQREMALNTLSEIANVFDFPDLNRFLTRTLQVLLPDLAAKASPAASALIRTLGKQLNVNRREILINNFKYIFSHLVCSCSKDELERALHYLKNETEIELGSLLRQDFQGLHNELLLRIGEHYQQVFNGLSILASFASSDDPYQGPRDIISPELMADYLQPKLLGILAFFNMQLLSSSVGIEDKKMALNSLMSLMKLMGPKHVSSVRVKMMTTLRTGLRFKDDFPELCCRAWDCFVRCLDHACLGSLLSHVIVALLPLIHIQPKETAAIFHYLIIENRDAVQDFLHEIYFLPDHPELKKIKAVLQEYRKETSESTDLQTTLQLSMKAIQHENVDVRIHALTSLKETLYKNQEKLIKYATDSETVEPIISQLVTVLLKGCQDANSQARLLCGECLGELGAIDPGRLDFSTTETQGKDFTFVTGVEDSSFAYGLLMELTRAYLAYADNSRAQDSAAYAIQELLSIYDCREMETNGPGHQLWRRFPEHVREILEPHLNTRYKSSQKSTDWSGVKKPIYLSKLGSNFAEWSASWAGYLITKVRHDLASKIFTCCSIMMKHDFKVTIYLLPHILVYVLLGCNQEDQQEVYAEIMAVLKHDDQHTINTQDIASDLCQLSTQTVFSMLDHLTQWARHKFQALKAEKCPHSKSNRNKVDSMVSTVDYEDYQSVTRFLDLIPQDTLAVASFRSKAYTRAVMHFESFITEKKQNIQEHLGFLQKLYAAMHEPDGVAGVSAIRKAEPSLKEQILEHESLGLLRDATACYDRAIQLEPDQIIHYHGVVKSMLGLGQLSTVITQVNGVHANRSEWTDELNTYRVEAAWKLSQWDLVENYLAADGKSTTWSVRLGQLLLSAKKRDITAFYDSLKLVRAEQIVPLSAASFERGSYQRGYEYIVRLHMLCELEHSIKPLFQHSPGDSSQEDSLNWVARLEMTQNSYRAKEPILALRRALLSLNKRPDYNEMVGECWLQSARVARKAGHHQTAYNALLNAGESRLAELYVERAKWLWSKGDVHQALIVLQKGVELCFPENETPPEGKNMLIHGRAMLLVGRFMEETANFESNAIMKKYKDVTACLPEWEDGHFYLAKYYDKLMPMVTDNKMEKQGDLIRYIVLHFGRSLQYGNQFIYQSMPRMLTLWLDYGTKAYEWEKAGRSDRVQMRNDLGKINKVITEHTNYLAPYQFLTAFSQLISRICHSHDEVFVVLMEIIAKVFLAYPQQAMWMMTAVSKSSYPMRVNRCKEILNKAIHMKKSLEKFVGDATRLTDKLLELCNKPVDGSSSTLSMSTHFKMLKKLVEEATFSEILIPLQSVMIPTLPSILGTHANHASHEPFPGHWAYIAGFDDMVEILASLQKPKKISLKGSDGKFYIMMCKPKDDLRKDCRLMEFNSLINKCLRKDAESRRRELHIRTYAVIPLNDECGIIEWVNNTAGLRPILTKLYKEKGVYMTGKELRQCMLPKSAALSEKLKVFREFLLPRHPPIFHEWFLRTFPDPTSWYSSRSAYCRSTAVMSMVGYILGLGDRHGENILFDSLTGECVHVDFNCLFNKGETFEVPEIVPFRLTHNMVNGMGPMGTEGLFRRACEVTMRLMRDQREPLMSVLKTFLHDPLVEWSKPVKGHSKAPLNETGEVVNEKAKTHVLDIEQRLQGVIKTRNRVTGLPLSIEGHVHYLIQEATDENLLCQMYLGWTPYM

[2] = molecular target: T2, Mre11 (human (endogenous in HCT116)), P49959; assay: as above; settings: remark: other sources report otherwise
T2 chain: T1 sequence

- binding [1]: binds
Molecule: Ataxia telangiectasia-mutated and Rad3-related (ATR) (from UniProt Q13535 1-2644)

- binding [2]: binds
B1: Exo1, Q9UQ84 1-846 (protein)
chain: MGIQGLLQFIKEASEPIHVRKYKGQVVAVDTYCWLHKGAIACAEKLAKGEPTDRYVGFCMKFVNMLLSHGIKPILVFDGCTLPSKKEVERSRRERRQANLLKGKQLLREGKVSEARECFTRSINITHAMAHKVIKAARSQGVDCLVAPYEADAQLAYLNKAGIVQAIITEDSDLLAFGCKKVILKMDQFGNGLEIDQARLGMCRQLGDVFTEEKFRYMCILSGCDYLSSLRGIGLAKACKVLRLANNPDIVKVIKKIGHYLKMNITVPEDYINGFIRANNTFLYQLVFDPIKRKLIPLNAYEDDVDPETLSYAGQYVDDSIALQIALGNKDINTFEQIDDYNPDTAMPAHSRSHSWDDKTCQKSANVSSIWHRNYSPRPESGTVSDAPQLKENPSTVGVERVISTKGLNLPRKSSIVKRPRSAELSEDDLLSQYSLSFTKKTKKNSSEGNKSLSFSEVFVPDLVNGPTNKKSVSTPPRTRNKFATFLQRKNEESGAVVVPGTRSRFFCSSDSTDCVSNKVSIQPLDETAVTDKENNLHESEYGDQEGKRLVDTDVARNSSDDIPNNHIPGDHIPDKATVFTDEESYSFESSKFTRTISPPTLGTLRSCFSWSGGLGDFSRTPSPSPSTALQQFRRKSDSPTSLPENNMSDVSQLKSEESSDDESHPLREEACSSQSQESGEFSLQSSNASKLSQCSSKDSDSEESDCNIKLLDSQSDQTSKLRLSHFSKKDTPLRNKVPGLYKSSSADSLSTTKIKPLGPARASGLSKKPASIQKRKHHNAENKPGLQIKLNELWKNFGFKKDSEKLPPCKKPLSPVRDNIQLTPEAEEDIFNKPECGRVQRAIFQ
